## Results of single-concentration screens

A: 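Whole-parasite assay of Trypanosoma brucei over 72 hours; the read-out is not stated. Concentration: 30 µM. Higher reads as stronger inhibition (inferred: compounds with an IC50 in retests scored well above the rest). Values scatter widely below zero; nearly all retest evidence comes from the higher of the two concentrations used. Size under these conditions: about 64,000 compounds, about 940 of them at 50% or above in at least one test.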
B: 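Assay of Toxoplasma gondii numbers, read through their beta-galactosidase reporter with a colour substrate. Compounds at 10 µM. Higher reads as fewer parasites (inferred from which compounds were picked for retests). Size under these conditions: about 67,000 compounds, about 260 of them at 50% or above in at least one test.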
C: 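Cell assay of Leishmania donovani living inside macrophages; the read-out is not stated. Tested at 30 µM. The record gives no direction; compounds that gave an IC50 in retests scored well above the rest, so higher reads as stronger inhibition. Size under these conditions: about 69,000 compounds, about 1,000 of them at 50% or above in at least one test.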

The filed quantity is “Percent Effect” (%).
How 0% and 100% were set is not recorded. Most values in the screen are low, and negative values occur.
Compounds were drawn at random from those tested, without regard to their results.
Two or more numbers in one place are separate tests of the same structure; such repeats can differ widely.

* CC(C)NC(=O)c1nc(COc2ccc3c(c2)OCO3)no1 : A: -6.343%; B: -0.6739%; C: 27.51%
* CCN1CCN(C2CCN(Cc3nc(C)c(C)o3)CC2)C1=O : B: -20.86%; C: 11.02%
* Cc1noc(-c2ccnc(N3CCC(CN4CCOCC4)CC3)c2)n1 : A: -22.6%; B: 5.487%; C: -9.376%
* Cc1cc(N(C)Cc2cc(C)on2)n2nc(C)c(C)c2n1 : A: -17.09%; B: 9.247%; C: 7.52%
* O=S(=O)(CCN1CCOC(Cn2cncn2)C1)c1ccccc1 (centres unmarked) : A: -26.56%; B: -0.5848%; C: 16.56%
* CCc1noc(C(C)N(C)CC(=O)Nc2ccc(C)cc2)n1 (centres unmarked) : A: -4.228%; B: -2.956%; C: 26.38%
* CCc1ccccc1NC(=O)c1cnn(C)c1C : A: -24.58%; B: 11.65%; C: 10.94%
* N#Cc1ccc(F)c(CN2CCc3sccc3C2)c1 : A: -2.931%; B: 3.105%; C: -13.21%
* CC(C)c1noc(C(C)S(=O)(=O)Cc2nc(C3CC3)no2)n1 (centres unmarked) : A: -14.81%; B: 3.944%; C: 17.19%
* CN(Cc1cnn(C)c1)C(=O)C(c1ccccc1)N1CCSCC1 (centres unmarked) : A: 24.34%; B: 2.907%; C: 14.31%
* COc1cc(-c2cccc3c2OC(CN)C3)ccc1O (centres unmarked) : A: -54.44%; B: -36.24%; C: 33.17%
* Cc1nc(C)n(CC2CCCN(CCc3ccccc3)C2)n1 (centres unmarked) : A: 13.64%; B: 6.645%; C: 25.36%
* Cc1nn(C)c(N(C)C)c1CNCc1cccnc1OC(C)C : A: 3.391%; B: -36.69%; C: -3.703%
* O=C(CCn1cncn1)NC1CCS(=O)(=O)C1 (centres unmarked) : B: -7.769%; C: -5.843%
* CCC(NC(=O)c1ccc(COC)o1)c1nc(C(F)(F)F)cs1 (centres unmarked) : A: -31.26%; B: -4.104%; C: -8.115%
* COc1ccc([C@@H]2CN(c3cc(OC)nc(N)n3)C[C@H]2N(C)C)cc1 : A: -8.45%; B: 4.566%; C: 10.95%
* [H][C@]12CN(c3ncc(C)cn3)C[C@@]1([H])S(=O)(=O)CC[C@@H]2C(=O)NCC(C)C : A: -58.56%; B: 0%; C: 16.85%
* Cn1cc(CCNC(=O)NCc2ccc3c(c2)OCCO3)cn1 : B: 5.528%; C: 23.14%
* CC(NC(=O)NCCCNS(C)(=O)=O)c1ccncc1 (centres unmarked) : A: 16%; B: 4.443%; C: 22.6%
* COCc1nc(CNC2CCC3(CCNCC3)CC2)no1 : A: -45.61%; B: -5.022%; C: -0.1269%
* CNC(=O)C(C)(C)CNC(=O)Nc1ccc(C)cn1 : A: -1.422%; B: -0.9812%; C: -4.041%
* c1coc(CN2CCc3ncnc(C4CCOC4)c3CC2)c1 (centres unmarked) : A: -6.031%; B: 1.355%; C: 12.26%
* Cn1ccc(C(=O)NCc2ccc(CN3CCCCC3)cc2)cc1=O : B: -5.131%; C: 33.35%
* CC(C)c1noc(-c2ccnc(-n3cnc(C(=O)O)c3)c2)n1 : A: -8.93%; B: 4.034%; C: -9.283%
* Fc1ccc(CN2CCCC3(CCN(Cc4ncc[nH]4)C3)C2)cc1F (centres unmarked) : A: -1.182%; B: -1.79%; C: 24.4%
* Cc1cncc(C2CCN(Cc3cccn3C)CC2)n1 : A: -54.35%; B: 4.453%; C: 10.77% & -1.772%
* O=C(O)C(F)(F)F.[H][C@@]12CCCO[C@]1([H])[C@@H](OCC1CC1)CN2S(=O)(=O)c1cn(C)cn1 : A: 4.181%; B: -2.582%; C: -2.064%
* CC1CCN(C(=O)c2cccc(CN3CCOCC3)c2)CC1 : A: -15.23%; B: -5.722%; C: 30.14%
* [H][C@@]12CCN(C(=O)Cc3cccs3)C[C@@]1([H])O[C@H](c1noc(C)n1)C2 : A: 13.32%; B: -64.39%; C: 32.14%
* Cc1nc(NC(=O)c2nn(-c3ccc(F)cc3C)cc2O)n[nH]1 : A: -24.59%; B: -6.278%; C: 3.207%
* O=C(O)C(F)(F)F.[H][C@@]12OCCN(S(=O)(=O)C3CC3)[C@@]1([H])CC[C@@H]2Oc1ncccc1F : A: -15.89%; B: 17.93%; C: 0.9346%
* COC(=O)c1ccc(N(C(=O)c2cccnc2C)C(C)C)c(C)c1 : A: -30.12%; B: -1.033%; C: 7.915%
* COc1ccc(C(CN2CCN(C)CC2)Nc2ncccn2)cc1 (centres unmarked) : A: -24.12%; B: -4.4%; C: -7.981%
* COc1ncccc1NC(=O)NC(C)c1nncn1C (centres unmarked) : A: -9.76%; B: -17.17%; C: 5.587%
* CN(C)C(=O)N1CCCC(C(=O)N(C)CCCc2cnn(C)c2)C1 (centres unmarked) : A: -7.917%; B: 6.511%; C: 11.96%
* CCc1c(C)nc(C2CCCN2C(=O)c2cc(C)no2)nc1O (centres unmarked) : A: -7.407%; B: 19.99%; C: 5.908%
* CNCC(=O)Nc1cccc(-c2cnc(NCCS(C)(=O)=O)nc2)c1 : A: -12.9%; B: 26.79%; C: 4.323% & -10.81%
* O=S(=O)(NCC(O)c1ccc(C(F)(F)F)cc1)C1CC1 (centres unmarked) : A: -36.16%; B: -16.73%; C: -9.298% & -6.946%

The last 5 entries again:

Compound	A	B	C
COc1ncccc1NC(=O)NC(C)c1nncn1C (centres unmarked)	-9.76%	-17.17%	5.587%
CN(C)C(=O)N1CCCC(C(=O)N(C)CCCc2cnn(C)c2)C1 (centres unmarked)	-7.917%	6.511%	11.96%
CCc1c(C)nc(C2CCCN2C(=O)c2cc(C)no2)nc1O (centres unmarked)	-7.407%	19.99%	5.908%
CNCC(=O)Nc1cccc(-c2cnc(NCCS(C)(=O)=O)nc2)c1	-12.9%	26.79%	4.323% & -10.81%
O=S(=O)(NCC(O)c1ccc(C(F)(F)F)cc1)C1CC1 (centres unmarked)	-36.16%	-16.73%	-9.298% & -6.946%

Source: ChEMBL document CHEMBL3988442, “University of Dundee, Small-Polar-MMV Screening Library” (2021).